PubChem BioAssay AID1224828 – NIAID – 2016

Aim: 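Regulators linking TLR4 signalling to p65 nuclear translocation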 (primary screen)
Cells: mouse RAW264.7 G9 macrophage reporter cells (GFP-p65, Tnf promoter-mCherry)
Reagent: siRNA pool against mouse genes, 100 nM
Duration: 2 days siRNA transfection, then 40 min LPS before fixation
Treatment: LPS (Salmonella minnesota R595) at 10 ng/ml
Measured: 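Microscopy ratio of nuclear to perinuclear-ring GFP-p65 signal, scaled to the plate median; gene score is the average of two replicate robust z-scores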
Reading the numbers: p65 translocation robust z-score: higher = more nuclear NF-kappaB p65 after LPS than the plate median; nuclear/cytoplasmic p65 ratio: higher = more nuclear NF-kappaB p65
Rule for the call: 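Active if robust z is above 3.3 (negative regulators) or below -1.56, the Tlr4 control median (positive regulators); activity score 50 or more; control wells not called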
Meaning of the calls: active = hit (p65 shift raised or lowered); inactive = no clear change
This is one part, drawn at random, of about 17,000 deposited reagents. 762 of them (4.5%) were called active. 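Active calls include both raised and lowered p65 entry, mostly lowered; wells with fewer than 50 cells lack a z-score.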 Raw values vary from plate to plate and are shown uncorrected. Entries without a mark were called inactive.

| gene symbol | p65 translocation robust z-score | nuclear/cytoplasmic p65 ratio, rep 1 | nuclear/cytoplasmic p65 ratio, rep 2 | low cell count flag |
| --- | --- | --- | --- | --- |
| Hspa4 (GeneID 15525) | 0.74 | 1.52 | 1.26 | enough cells to score |
| Ints10 (GeneID 70885) | – | 1.41 | 1.68 | fewer than 50 cells per well; well left out of scoring |
| Gadd45b (GeneID 17873) | -0.09 | 1.27 | 1.5 | enough cells to score |
| Tbc1d5 (GeneID 72238) | – | 1.45 | 1.14 | fewer than 50 cells per well; well left out of scoring |
| Hspa5 (GeneID 14828) | 1.72 | 1.59 | 1.66 | enough cells to score |
| Or7g32 (GeneID 258907) | – | 1.44 | 1.31 | fewer than 50 cells per well; well left out of scoring |
| Dmbx1 (GeneID 140477) | – | 1.8 | 1.45 | fewer than 50 cells per well; well left out of scoring |
| Bach1 (GeneID 12013) | -0.07 | 1.62 | 1.59 | enough cells to score |
| Rabep1 (GeneID 54189) | 1.36 | 1.56 | 1.36 | enough cells to score |
| Eps8l2 (GeneID 98845) | 1.42 | 1.63 | 1.82 | enough cells to score |
| Tmem119 (GeneID 231633) | 0.41 | 1.66 | 1.89 | enough cells to score |
| Smpd1 (GeneID 20597) | -0.38 | 1.5 | 1.5 | enough cells to score |
| Ccl9 (GeneID 20308) | 1.43 | 1.7 | 2.13 | enough cells to score |
| LOC277923 (retired record) (GeneID 277923) | 0.96 | 1.78 | 1.76 | enough cells to score |
| Cyth2 (GeneID 19158) | -1.44 | 1.32 | 1.2 | enough cells to score |
| Slc2a4 (GeneID 20528) | 0.42 | 1.63 | 1.53 | enough cells to score |
| Or51a8 (GeneID 259114) | – | 1.42 | 1.2 | fewer than 50 cells per well; well left out of scoring |
| Cyp2b10 (GeneID 13088) | 0.94 | 1.73 | 1.92 | enough cells to score |
| Ccl22 (GeneID 20299) | 0.41 | 1.74 | 1.43 | enough cells to score |
| Pkd2l1 (GeneID 329064) | -0.41 | 1.57 | 1.53 | enough cells to score |
| Foxg1 (GeneID 15228) | 0.66 | 1.5 | 1.47 | enough cells to score |

6 consecutive records from above, for reference:
| gene symbol | p65 translocation robust z-score | nuclear/cytoplasmic p65 ratio, rep 1 | nuclear/cytoplasmic p65 ratio, rep 2 | low cell count flag |
| --- | --- | --- | --- | --- |
| Eps8l2 (GeneID 98845) | 1.42 | 1.63 | 1.82 | enough cells to score |
| Tmem119 (GeneID 231633) | 0.41 | 1.66 | 1.89 | enough cells to score |
| Smpd1 (GeneID 20597) | -0.38 | 1.5 | 1.5 | enough cells to score |
| Ccl9 (GeneID 20308) | 1.43 | 1.7 | 2.13 | enough cells to score |
| LOC277923 (retired record) (GeneID 277923) | 0.96 | 1.78 | 1.76 | enough cells to score |
| Cyth2 (GeneID 19158) | -1.44 | 1.32 | 1.2 | enough cells to score |

More records:
| gene symbol | p65 translocation robust z-score | nuclear/cytoplasmic p65 ratio, rep 1 | nuclear/cytoplasmic p65 ratio, rep 2 | low cell count flag |
| --- | --- | --- | --- | --- |
| Krtap4-7 (GeneID 76444) | 1.28 | 1.39 | 1.59 | enough cells to score |
| Ube2i (GeneID 22196) | -0.75 | 1.44 | 1.36 | enough cells to score |
| Or56a4 (GeneID 244187) | – | 1.32 | 1.25 | fewer than 50 cells per well; well left out of scoring |
| Mnt (GeneID 17428) | -1.1 | 1.29 | 1.21 | enough cells to score |
| Amot (GeneID 27494) | 1.54 | 1.84 | 1.92 | enough cells to score |
| Atp4b (GeneID 11945) | -0.57 | 1.42 | 1.52 | enough cells to score |
| Ube2l6 (GeneID 56791) | 0.01 | 1.55 | 1.47 | enough cells to score |
| Slc22a19 (GeneID 207151) | -0.05 | 1.36 | 1.28 | enough cells to score |
| Sord (GeneID 20322) | 0.2 | 1.56 | 1.6 | enough cells to score |
| Ssh2 (GeneID 237860) | -0.67 | 1.45 | 1.47 | enough cells to score |
| Mylk (GeneID 107589) | -1.39 | 1.26 | 1.36 | enough cells to score |
| 9130019P16Rik (GeneID 100042056) | 0.04 | 1.37 | 1.54 | enough cells to score |
| Xpnpep3 (GeneID 321003) | 0.72 | 1.6 | 1.43 | enough cells to score |
| Fbxo45 (GeneID 268882) | 0.46 | 1.79 | 1.76 | enough cells to score |
| Bbs4 (GeneID 102774) | 1.13 | 1.74 | 1.82 | enough cells to score |
| P3h3 (GeneID 14789) | 0.99 | 1.81 | 1.74 | enough cells to score |
| Trim60 (GeneID 234329) | -1.6 (active) | 1.21 | 1.03 | enough cells to score |
| Optn (GeneID 71648) | 4.16 (active) | 1.96 | 2 | enough cells to score |
| Rras2 (GeneID 66922) | -0.66 | 1.43 | 1.65 | enough cells to score |
| Tcp11l1 (GeneID 320554) | -1.5 | 1.24 | 1.3 | enough cells to score |
| Smpdl3b (GeneID 100340) | – | 1.2 | 1.14 | fewer than 50 cells per well; well left out of scoring |
| Itgav (GeneID 16410) | – | 1.33 | 1.28 | fewer than 50 cells per well; well left out of scoring |
| Ankrd7 (GeneID 75196) | -0.67 | 1.55 | 1.47 | enough cells to score |
| Spock2 (GeneID 94214) | 1.09 | 1.6 | 1.33 | enough cells to score |
| Mkrn3 (GeneID 22652) | -1.66 (active) | 1.47 | 1.38 | enough cells to score |
| Nr1i2 (GeneID 18171) | 0.77 | 1.49 | 1.57 | enough cells to score |
| Gnat1 (GeneID 14685) | 2.07 | 1.72 | 1.96 | enough cells to score |
| Atad2 (GeneID 70472) | 1.33 | 1.66 | 1.96 | enough cells to score |
| Ralb (GeneID 64143) | -0.5 | 1.45 | 1.44 | enough cells to score |
| Tlr7 (GeneID 170743) | 0.12 | 1.5 | 1.57 | enough cells to score |
| Slc24a3 (GeneID 94249) | – | 1.59 | 1.28 | fewer than 50 cells per well; well left out of scoring |
| Entpd3 (GeneID 215446) | 0.53 | 1.79 | 1.42 | enough cells to score |
| Ect2 (GeneID 13605) | -1.15 | 1.38 | 1.16 | enough cells to score |
| Or51a39 (GeneID 18332) | -1.57 (active) | 1.29 | 1.29 | enough cells to score |
| 4930512M02Rik (GeneID 102631730) | – | 1.28 | 1.33 | fewer than 50 cells per well; well left out of scoring |
| Dlx4 (GeneID 13394) | – | 1.14 | 1.04 | fewer than 50 cells per well; well left out of scoring |
| Zfp449 (GeneID 78619) | 0.79 | 1.55 | 1.64 | enough cells to score |
| Egln1 (GeneID 112405) | -1.48 | 1.26 | 1.18 | enough cells to score |
